Laboratory results as given in the supplement of paper PMC4807443.
Structures can show the parent of a compound that is named as a salt. Some of the results follow. The numbers are fractions of the control, whatever unit the source prints. Most entries show no effect beyond the scatter of the controls.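 MIN6 is a mouse insulinoma beta-cell line that stably carries a lentiviral reporter in which the Pdx1 and Ins1 promoters each drive a nucleus-targeted fluorescent protein; cells were counted by automated imaging with a Hoechst nuclear stain. In the screen, a drug was a possible hit when its Ins1 promoter readout lay beyond two median absolute deviations from the DMSO controls while Pdx1 activity stayed near normal.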

System: MIN6
Assay: % Pdx1+ Ins1+ (double-positive, mature) cells relative to DMSO control (fold of DMSO control); higher = more mature Ins1 promoter-active cells
Details: 8.5 µM; 48 h; glucose 5 mM

| Structure (SMILES) | % Pdx1+ Ins1+ |
| --- | --- |
| Cc1n[nH]c(=O)[nH]c1=O [Azathymine, 6] | 0.888 |
| CN(C)CCCN1c2ccccc2Sc2ccc(Cl)cc21 [Chlorpromazine hydrochloride] | 1.11 |
| COc1ccc(C(=O)c2ccccc2O)c(O)c1 [Dioxybenzone] | 0.85 |
| CC(C)(C)NC[C@H](O)COc1ccccc1C1CCCC1 [Penbutolol sulfate] | 0.821 |
| O=c1c(O)c(-c2ccc(O)c(O)c2)oc2cc(O)cc(O)c12 [Quercetine dihydrate] | 0.929 |
| NS(=O)(=O)c1cc2c(cc1Cl)NC(CC1CCCC1)NS2(=O)=O (configuration not stated) [Cyclopenthiazide] | 0.902 |
| CC(C)(C)NCC(O)c1cc(O)cc(O)c1 (configuration not stated) [Terbutaline hemisulfate] | 0.981 |
| CCOC(=O)[N-]c1c[n+](N2CCOCC2)no1 [Molsidomine] | 0.876 |
| CC[N+](CC)(CC)CCOc1cccc(OCC[N+](CC)(CC)CC)c1OCC[N+](CC)(CC)CC [Gallamine triethiodide] | 0.989 |
| C#C[C@]1(O)CC[C@H]2[C@@H]3CCC4=C(CCC(=O)C4)[C@H]3CC[C@@]21C [Norethynodrel] | 1.19 |
| CCc1oc2ccccc2c1C(=O)c1cc(Br)c(O)c(Br)c1 [Benzbromarone] | 0.915 |
| CC/C(=C(\c1ccccc1)c1ccc(OCCN(C)C)cc1)c1ccccc1 [Tamoxifen citrate] | 1.1 |
| CN[C@@H]1[C@H](O[C@H]2[C@H](O[C@H]3[C@H](O)[C@@H](O)[C@H](NC(=N)N)[C@@H](O)[C@@H]3NC(=N)N)O[C@@H](C)[C@]2(O)CO)O[C@@H](CO)[C@H](O)[C@H]1O [Dihydrostreptomycin sulfate] | 1.04 |
| NCc1ccc(S(N)(=O)=O)cc1 [Mafenide hydrochloride] | 1.19 |
| CCCCC[C@H](O)/C=C/[C@H]1[C@H](O)CC(=O)[C@@H]1CCCCCCC(=O)O [Alprostadil] | 0.928 |
| CC(C(=O)O)c1ccc(C(=O)c2cccs2)cc1 (configuration not stated) [Suprofen] | 0.813 |
| CCOc1ccc(NC(C)=O)cc1 [Phenacetin] | 0.828 |
| CN1CCC[C@@H]1CCO[C@](C)(c1ccccc1)c1ccc(Cl)cc1 [Clemastine fumarate] | 1.03 |
| COC(=O)[C@H]1[C@H]2C[C@@H]3c4[nH]c5cc(OC)ccc5c4CCN3C[C@H]2C[C@@H](OC(=O)/C=C/c2cc(OC)c(OC)c(OC)c2)[C@@H]1OC [Rescinnamin] | 0.742 |
| COC(=O)C1=C(C)NC(C)=C(C(=O)OCCN(C)Cc2ccccc2)C1c1cccc([N+](=O)[O-])c1 (configuration not stated) [Nicardipine hydrochloride] | 0.671 |
| CN(C)CCOC(c1ccc(Cl)cc1)c1ccccn1 (configuration not stated) [Carbinoxamine maleate salt] | 0.997 |
| NC(=O)NC1NC(=O)NC1=O (configuration not stated) [Allantoin] | 1.22 |
| CC(C)NCC(O)c1ccc(O)c(O)c1 (single isomer, unassigned; (-)) [(-)-Isoproterenol hydrochloride] | 0.943 |
| O=C1C(O)=C([C@H]2CC[C@H](c3ccc(Cl)cc3)CC2)C(=O)c2ccccc21 [Atovaquone] | 0.987 |

| Structure (SMILES) | % Pdx1+ Ins1+ |
| --- | --- |
| Cc1ccccc1C(OCCN(C)C)c1ccccc1 (configuration not stated) [Orphenadrine hydrochloride] | 0.966 |
| CN1CCC(=C2c3ccccc3CCc3sccc32)CC1 [Pizotifen malate] | 0.813 |
| CN1CCOC(c2ccccc2)c2ccccc2C1 (configuration not stated) [Nefopam hydrochloride] | 1.05 |
| CN(C)[C@@H]1C(O)=C(C(=O)NCNCCCC[C@H](N)C(=O)O)C(=O)[C@@]2(O)C(O)=C3C(=O)c4c(O)cccc4[C@@](C)(O)[C@H]3C[C@@H]12 [Lymecycline] | 1.11 |
| CCCCNc1ccc(C(=O)OCCN(C)C)cc1 [Tetracaïne hydrochloride] | 0.868 |
| CCN(CC)CCOc1ccc(C(=C(Cl)c2ccccc2)c2ccccc2)cc1 [Clomiphene citrate (Z,E)] | 0.865 |
| CC(O)(P(=O)(O)O)P(=O)(O)O [Etidronic acid, disodium salt] | 0.896 |
| COc1ccccc1N1CCN(CCCCNC(=O)c2ccc3ccccc3c2)CC1 | 0.946 |
| CCC1NC(=O)c2cc(S(N)(=O)=O)c(Cl)cc2N1 (configuration not stated) [Quinethazone] | 1.02 |
| Cc1cnc(C(=O)NCCc2ccc(S(=O)(=O)NC(=O)NC3CCCCC3)cc2)cn1 [Glipizide] | 1.07 |
| O=C(O)CN(CCN(CC(=O)O)CC(=O)O)CCN(CC(=O)O)CC(=O)O [Pentetic acid] | 1.04 |
| C#CCN(C)CCCOc1ccc(Cl)cc1Cl [Clorgyline hydrochloride] | 0.903 |
| CC(C)NCC(O)c1cc(O)cc(O)c1 (configuration not stated) [Metaproterenol sulfate, orciprenaline sulfate] | 0.862 |
| Cn1c(=O)c2c(ncn2CCO)n(C)c1=O [Etofylline] | 1.03 |
| COc1ccccc1N1CCN(CCCNc2cc(=O)n(C)c(=O)n2C)CC1 [Urapidil hydrochloride] | 0.911 |
| CCN(CC)Cc1cc(Nc2ccnc3cc(Cl)ccc23)ccc1O [Amodiaquin dihydrochloride dihydrate] | 1.08 |
| O=C(/C=C/C=C/c1ccc2c(c1)OCO2)N1CCCCC1 [Piperine] | 1.01 |
| CCC(=O)OCC(=O)[C@@]1(OC(=O)CC)[C@@H](C)C[C@H]2[C@@H]3CCC4=CC(=O)C=C[C@]4(C)[C@@]3(Cl)[C@@H](O)C[C@@]21C [Beclomethasone dipropionate] | 0.934 |
| CC1(C)S[C@@H]2[C@H](NC(=O)Cc3ccccc3)C(=O)N2[C@H]1C(=O)O [Benzylpenicillin sodium] | 0.936 |
| CC1(C)S[C@@H]2[C@H](NC(=O)Cc3ccccc3)C(=O)N2[C@H]1C(=O)O [Benzathine benzylpenicillin] | 0.86 |
| CCN(CC)CCNC(=O)COc1ccc(OC)cc1 [Mefexamide hydrochloride] | 0.881 |
| Clc1ccc(C(Cn2ccnc2)OCc2csc3c(Cl)cccc23)c(Cl)c1 (configuration not stated) [Sertaconazole nitrate] | 0.845 |
| CC(=O)OCC1=C(C(=O)O)N2C(=O)[C@@H](NC(=O)Cc3cccs3)[C@H]2SC1 [Cephalothin sodium salt] | 0.902 |

Quoted from the listing:
% Pdx1+ Ins1+, CCCCNc1ccc(C(=O)OCCN(C)C)cc1 [Tetracaïne hydrochloride] reads 0.868
% Pdx1+ Ins1+, CC(O)(P(=O)(O)O)P(=O)(O)O [Etidronic acid, disodium salt] reads 0.896
